Results are given in words; binding and its absence hold for the method and conditions named. In cells and extracts the contact can be indirect. Here binding means that the protein was enriched with, or labelled near, the bait; the list need not be complete. Sequences can lack the tags named with a protein. One block for each binder: values may come before it.
Biological target: Kinesin-like protein (KIF1A) (human (endogenous in LNCaP-AI and LNCaP)) (UniProt Q12756)
Experiment: affinity purification with mass spectrometry; immunoprecipitation of KIF1A from LNCaP-AI cells and mass spectrometry to screen for KIF1A-binding proteins

Sequences of proteins named here, by UniProt entry; tags and fusion partners are left off.
UniProt Q12756: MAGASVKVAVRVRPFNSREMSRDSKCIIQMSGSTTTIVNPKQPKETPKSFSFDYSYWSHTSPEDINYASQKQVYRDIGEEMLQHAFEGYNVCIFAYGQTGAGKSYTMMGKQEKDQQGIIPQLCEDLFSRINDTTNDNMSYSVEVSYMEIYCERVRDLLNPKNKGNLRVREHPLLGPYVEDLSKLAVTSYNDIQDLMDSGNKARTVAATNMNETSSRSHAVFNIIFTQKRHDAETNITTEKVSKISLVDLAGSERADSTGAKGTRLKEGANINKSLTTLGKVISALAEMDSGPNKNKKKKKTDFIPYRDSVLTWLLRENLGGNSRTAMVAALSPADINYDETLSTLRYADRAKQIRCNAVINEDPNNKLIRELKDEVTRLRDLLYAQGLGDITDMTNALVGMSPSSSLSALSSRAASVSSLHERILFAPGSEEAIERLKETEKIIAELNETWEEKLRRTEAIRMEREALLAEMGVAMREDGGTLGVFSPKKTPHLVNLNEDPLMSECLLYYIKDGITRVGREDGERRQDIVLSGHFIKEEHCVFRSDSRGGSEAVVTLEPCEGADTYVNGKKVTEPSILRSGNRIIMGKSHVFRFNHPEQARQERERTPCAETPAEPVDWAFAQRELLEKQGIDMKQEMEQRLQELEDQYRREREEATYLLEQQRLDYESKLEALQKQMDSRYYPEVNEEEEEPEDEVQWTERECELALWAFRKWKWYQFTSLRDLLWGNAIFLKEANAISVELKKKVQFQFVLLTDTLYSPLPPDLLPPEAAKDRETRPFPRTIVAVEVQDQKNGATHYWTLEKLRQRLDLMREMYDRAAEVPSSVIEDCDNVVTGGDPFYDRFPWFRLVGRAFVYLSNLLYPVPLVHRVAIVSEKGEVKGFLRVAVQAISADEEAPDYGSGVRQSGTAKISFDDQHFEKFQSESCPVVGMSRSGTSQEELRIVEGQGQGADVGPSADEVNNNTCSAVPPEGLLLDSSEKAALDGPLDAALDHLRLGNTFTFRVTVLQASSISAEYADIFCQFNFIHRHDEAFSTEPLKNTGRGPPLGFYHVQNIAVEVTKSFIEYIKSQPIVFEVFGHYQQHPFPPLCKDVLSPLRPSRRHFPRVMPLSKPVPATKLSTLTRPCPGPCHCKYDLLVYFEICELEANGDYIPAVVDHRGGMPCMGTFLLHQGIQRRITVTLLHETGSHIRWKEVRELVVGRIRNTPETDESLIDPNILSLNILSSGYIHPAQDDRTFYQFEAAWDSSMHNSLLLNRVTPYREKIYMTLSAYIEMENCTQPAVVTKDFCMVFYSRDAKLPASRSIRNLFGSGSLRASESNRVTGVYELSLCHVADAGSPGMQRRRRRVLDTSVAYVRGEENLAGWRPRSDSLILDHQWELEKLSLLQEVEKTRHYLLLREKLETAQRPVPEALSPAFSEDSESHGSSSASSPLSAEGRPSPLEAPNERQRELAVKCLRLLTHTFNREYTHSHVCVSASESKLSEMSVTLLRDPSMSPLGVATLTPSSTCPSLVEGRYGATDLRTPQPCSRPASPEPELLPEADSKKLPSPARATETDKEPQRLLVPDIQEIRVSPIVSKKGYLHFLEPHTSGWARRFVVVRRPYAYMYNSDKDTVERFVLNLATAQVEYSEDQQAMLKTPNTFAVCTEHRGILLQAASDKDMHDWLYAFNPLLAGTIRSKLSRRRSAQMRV

binding: binds
B1: PRDX1 (protein, UniProt Q06830 1-199)
chain: MSSGNAKIGHPAPNFKATAVMPDGQFKDISLSDYKGKYVVFFFYPLDFTFVCPTEIIAFSDRAEEFKKLNCQVIGASVDSHFCHLAWVNTPKKQGGLGPMNIPLVSDPKRTIAQDYGVLKADEGISFRGLFIIDDKGILRQITVNDLPVGRSVDETLRLVQAFQFTDKHGEVCPAGWKPGSDTIKPDVQKSKEYFSKQK

binding: binds
B2: O-linked N-acetylglucosamine transferase (OGT) (enzyme, UniProt O15294 1-1046)
chain: MASSVGNVADSTEPTKRMLSFQGLAELAHREYQAGDFEAAERHCMQLWRQEPDNTGVLLLLSSIHFQCRRLDRSAHFSTLAIKQNPLLAEAYSNLGNVYKERGQLQEAIEHYRHALRLKPDFIDGYINLAAALVAAGDMEGAVQAYVSALQYNPDLYCVRSDLGNLLKALGRLEEAKACYLKAIETQPNFAVAWSNLGCVFNAQGEIWLAIHHFEKAVTLDPNFLDAYINLGNVLKEARIFDRAVAAYLRALSLSPNHAVVHGNLACVYYEQGLIDLAIDTYRRAIELQPHFPDAYCNLANALKEKGSVAEAEDCYNTALRLCPTHADSLNNLANIKREQGNIEEAVRLYRKALEVFPEFAAAHSNLASVLQQQGKLQEALMHYKEAIRISPTFADAYSNMGNTLKEMQDVQGALQCYTRAIQINPAFADAHSNLASIHKDSGNIPEAIASYRTALKLKPDFPDAYCNLAHCLQIVCDWTDYDERMKKLVSIVADQLEKNRLPSVHPHHSMLYPLSHGFRKAIAERHGNLCLDKINVLHKPPYEHPKDLKLSDGRLRVGYVSSDFGNHPTSHLMQSIPGMHNPDKFEVFCYALSPDDGTNFRVKVMAEANHFIDLSQIPCNGKAADRIHQDGIHILVNMNGYTKGARNELFALRPAPIQAMWLGYPGTSGALFMDYIITDQETSPAEVAEQYSEKLAYMPHTFFIGDHANMFPHLKKKAVIDFKSNGHIYDNRIVLNGIDLKAFLDSLPDVKIVKMKCPDGGDNADSSNTALNMPVIPMNTIAEAVIEMINRGQIQITINGFSISNGLATTQINNKAATGEEVPRTIIVTTRSQYGLPEDAIVYCNFNQLYKIDPSTLQMWANILKRVPNSVLWLLRFPAVGEPNIQQYAQNMGLPQNRIIFSPVAPKEEHVRRGQLADVCLDTPLCNGHTTGMDVLWAGTPMVTMPGETLASRVAASQLTCLGCLELIAKNRQEYEDIAVKLGTDLEYLKKVRGKVWKQRISSPLFNTKQYTMELERLYLQMWEHYAAGNKPDHMIKPVEVTESA
